Intracellular bacterial bioluminescence data for 90 compounds are collected here from the supplement of paper PMC12578635.

Molecules are shown by their SMILES. Some of the results follow. Rule as the data show it: active = 150% or more and inactive = the rest. Single values are uncertain, as repeats are few or missing.

The test system of this assay is Staphylococcus aureus JE2-lux inside RAW 264.7 macrophages. In words: intracellular bacterial bioluminescence relative to DMSO vehicle; higher = higher intracellular bacterial metabolic activity. The following applies: 10 µM; treatment time 4 h; gentamicin 50 µg/ml.
On to `CCOC(=O)c1cc(NC(=O)Nc2ccccn2)c(C)nc1C`, for which the intracellular bacterial bioluminescence was inactive: 71.6%.

Turning to `CC1Cc2ccccc2N1Cc1cc(=O)c(OCC(=O)Nc2ccc(Cl)cc2)co1` (stereo not given), the intracellular bacterial bioluminescence is inactive: 86.4%.

In the case of `COc1ccc(Cl)c2sc(N(CCCn3ccnc3)C(=O)c3cccs3)nc12`, the intracellular bacterial bioluminescence was inactive: 72.7%.

On to `CCc1cc(-c2csc(S(=O)(=O)NCc3ccccc3Cl)c2)on1`, for which the intracellular bacterial bioluminescence was inactive: 66.9%.

Consider `Cc1ccc2nc(Nc3cccc(O)c3)nc(-c3ccccc3)c2c1`, for which the intracellular bacterial bioluminescence is inactive: 99%.

For the compound `CCOC(=O)Cn1c(=O)c2c(nc3n2CCCN3c2ccccc2OC)n(C)c1=O`, the intracellular bacterial bioluminescence is inactive: 80.9%.

For the compound `CCOC(=O)C1=C(C)N=c2s/c(=C/c3cccnc3)c(=O)n2C1c1cccs1` (stereo not given), the intracellular bacterial bioluminescence is inactive: 91.3%.

Regarding `CCOC(=O)c1[nH]c2ccccc2c1NC(=S)Nc1ccc(OC)cc1`, the intracellular bacterial bioluminescence was inactive: 61.7%.

Turning to `CCCC(=O)Nc1nc(-c2ccc(Cl)cc2)cc(-c2ccc(OC)cc2)n1`, the intracellular bacterial bioluminescence is inactive: 116%.

On to `CN1C(=O)c2ccc(NC(=O)CCc3nc(CSc4nc5ccccc5s4)no3)cc2C1=O`, for which the intracellular bacterial bioluminescence was inactive: 57.1%.

Regarding `COc1ccc(NC(=O)c2ncoc2-c2ccccc2C(F)(F)F)c(OC)n1`, the intracellular bacterial bioluminescence is inactive: 108%.

Consider `Cc1nc2cc(NC(=O)c3ccc(S(=O)(=O)N(C)Cc4ccccc4)cc3)ccc2s1`, for which the intracellular bacterial bioluminescence is inactive: 107%.

On to `COc1ccc2c(O)c(C(=O)NCC3CCCO3)cnc2c1` (stereo not given), for which the intracellular bacterial bioluminescence was inactive: 115%.

`CCOC(=O)c1cc(NC(=O)CSc2nc(C)nc3sc4c(c23)CCC4)cc(C(=O)OCC)c1`: the intracellular bacterial bioluminescence was inactive: 58%.

Take `CCOC(=O)c1ccc(NC(=O)CSc2nc3c(c(=O)n2-c2ccc(C)cc2)SCC3)cc1`: the intracellular bacterial bioluminescence is inactive: 49.1%.

As for `CCN(CC)C(=O)Cn1cc(S(=O)(=O)CC(=O)Nc2ccc(C(N)=O)cc2)c2ccccc21`, the intracellular bacterial bioluminescence is inactive: 120%.

Consider `COc1ccc(/C=c2\sc3nc(-c4ccncc4)nn3c2=O)cc1OC`, for which the intracellular bacterial bioluminescence was inactive: 86%.

Turning to `COc1cccc(CNc2ncnc3oc4c(c23)CCCC4)c1`, the intracellular bacterial bioluminescence is inactive: 78.5%.

For the compound `COc1ccc(NC(=O)c2nnc(C3CCN(C(=O)Nc4ccc(C)c(Cl)c4)CC3)s2)cc1`, the intracellular bacterial bioluminescence was inactive: 69.5%.

`CCc1cc2cc(C)ccc2nc1SCC(=O)Nc1c(C)[nH]c(=O)[nH]c1=O`: the intracellular bacterial bioluminescence was inactive: 109%.

For the compound `Cc1ccc(-c2nnc3ccccc3c2C(=O)N(C)Cc2ccccc2)cc1`, the intracellular bacterial bioluminescence was inactive: 65.6%.

On to `CC1CC(C)CN(C(=O)c2ccc3c(=O)n(CCC4=CCCCC4)c(=S)[nH]c3c2)C1` (stereo not given), for which the intracellular bacterial bioluminescence was inactive: 35.4%.

`CCN(CC)C(=O)Cn1nc2c3ccccc3nc(C(C)(C)C)n2c1=O`: the intracellular bacterial bioluminescence is inactive: 92.6%.

`Cn1c(=O)n(CC(N)=O)c(=O)c2c1nc(Br)n2Cc1ccccc1`: the intracellular bacterial bioluminescence was inactive: 116%.

Turning to `O=C(NCCc1csc2nc(-c3ccc(F)cc3)nn12)C(=O)Nc1ccc(Cl)cc1`, the intracellular bacterial bioluminescence was inactive: 83.9%.

Consider `O=C(Nc1ccc2c(c1)N(C(=O)C1CC1)CCC2)c1ccc([N+](=O)[O-])cc1`, for which the intracellular bacterial bioluminescence was inactive: 66.4%.

`COc1ccc(NS(=O)(=O)c2cc3c4c(c2)CCN4C(=O)CC3)cc1Cl`: the intracellular bacterial bioluminescence was inactive: 131%.

`CN(C)/C=N/c1c(C#N)cnn1-c1ccc(Cl)nn1`: the intracellular bacterial bioluminescence was inactive: 107%.

For `CCCN1CCN(c2ncnc3sc(C(=O)Nc4cc(OC)cc(OC)c4)c(C)c23)CC1`, the intracellular bacterial bioluminescence is inactive: 108%.

Consider `Nc1c(C(=O)Nc2ccccc2)sc2nc(-c3cccnc3)ccc12`, for which the intracellular bacterial bioluminescence was inactive: 97.9%.

Turning to `O=c1[nH]c(-c2cccc(O)c2)nc2c1Cc1c(ccc3ccccc13)O2`, the intracellular bacterial bioluminescence is inactive: 106%.

Take `CCCNC(=O)N1CCC(n2c(C)nc3cccnc32)CC1`: the intracellular bacterial bioluminescence was inactive: 94.2%.

As to `Cc1ccc(CN2CCCn3nc(C(=O)NC(C)C)cc3C2=O)cc1`, the intracellular bacterial bioluminescence is inactive: 116%.

As for `COc1ccc(C(NC(=O)c2ccc3nc(C)sc3c2)c2ccncc2)cc1` (stereo not given), the intracellular bacterial bioluminescence was inactive: 95.1%.

Regarding `COc1ccc(Nc2c3c(c(C#N)c4nc5ccccc5n24)CCCC3)cc1`, the intracellular bacterial bioluminescence was inactive: 78.7%.

For the compound `O=C(CN1C(=O)COc2ccccc21)NNC(=O)NC1CCCCC1`, the intracellular bacterial bioluminescence is inactive: 97.9%.

As for `CC(C)[C@H](Cn1nc(C2CC2)ccc1=O)NC(=O)Cn1nnc2ccccc21`, the intracellular bacterial bioluminescence was inactive: 115%.

`CCc1nnc2ccc(C(=O)NCCN3CCCC3)cn12`: the intracellular bacterial bioluminescence is inactive: 85.2%.

Regarding `COc1ccc2sc(Nc3ccccc3C#N)nc2c1`, the intracellular bacterial bioluminescence is inactive: 93%.

`COc1cc(NC(=O)C2CCN(c3cnccn3)CC2)cc(OC)c1`: the intracellular bacterial bioluminescence is inactive: 67.8%.

With `Cn1nc(C(=O)N2CCCC2)c2c1CCN(S(=O)(=O)c1cccc3cccnc13)C2`, the intracellular bacterial bioluminescence is inactive: 22.4%.

On to `CC(=O)Oc1ccc(/C=C(\C#N)c2nc(-c3ccc(Cl)cc3)cs2)cc1`, for which the intracellular bacterial bioluminescence is inactive: 135%.

Consider `CC(NC(=O)c1ncoc1-c1ccc2ccccc2c1)c1ccccn1` (stereo not given), for which the intracellular bacterial bioluminescence was inactive: 79.8%.

On to `Cc1ccc(S(=O)(=O)N2CCCc3ccc(NC(=O)C(=O)Nc4ccc(F)cc4)cc32)cc1`, for which the intracellular bacterial bioluminescence is inactive: 99.1%.

With `O=C(Nc1ccc(C(O)CN2CCC(O)(c3ccccc3F)CC2)cc1)C1CC1` (stereo not given), the intracellular bacterial bioluminescence is inactive: 127%.

With `Cc1ccc([N+](=O)[O-])cc1NC(=O)CCN1C(=O)c2ccccc2S1(=O)=O`, the intracellular bacterial bioluminescence was inactive: 18.3%.

As to `COc1ccc(NC(=O)CSc2nc3ccccc3cc2C)c(OC)c1`, the intracellular bacterial bioluminescence is inactive: 81.1%.

Consider `O=C(Nc1ccc(Oc2cccnc2)cc1)c1[nH]nc2c1CCCCC2`, for which the intracellular bacterial bioluminescence was inactive: 13.7%.

Turning to `Cc1nn2c(C)c(C(=O)N3CCN(C4CCCCC4)CC3)cnc2c1-c1ccccc1`, the intracellular bacterial bioluminescence is inactive: 112%.

In the case of `COc1cccc(-c2nc3n(n2)C(c2ccccc2F)C(C(N)=O)=C(C)N3)c1` (stereo not given), the intracellular bacterial bioluminescence was inactive: 135%.

For the compound `O=c1[nH]c(CSc2nc3ccccc3[nH]2)nc2ccccc12`, the intracellular bacterial bioluminescence is inactive: 79.1%.

As for `CCOc1cccc2sc(N(Cc3cccnc3)C(=O)Cc3ccc(F)cc3)nc12`, the intracellular bacterial bioluminescence is inactive: 36.3%.

With `CCc1ccc(Nc2nc(C)c3nc(C(F)(F)F)n(-c4ccc(CC)cc4)c3n2)cc1`, the intracellular bacterial bioluminescence was inactive: 73.5%.

`CCOC(=O)c1sc(N/N=C2/C(=N)N(c3ccccc3)N=C2C)c(C(=O)OCC)c1C`: the intracellular bacterial bioluminescence was inactive: 61.2%.

Consider `CCOc1ccc(NC(=O)N2CCC(c3nc4cc(C)ccc4[nH]3)CC2)cc1`, for which the intracellular bacterial bioluminescence was inactive: 113%.

For the compound `COc1ccc2cc(C#N)c(SCC(=O)Nc3nonc3C)nc2c1`, the intracellular bacterial bioluminescence is inactive: 107%.

As for `COc1ccc(CCNc2cc(C)c(C#N)c3nc4ccccc4n23)cc1OC`, the intracellular bacterial bioluminescence was inactive: 112%.

As to `C=CCOc1ccccc1NC(=O)c1cccc(-n2nc(C)c(Cl)c2C)c1`, the intracellular bacterial bioluminescence was inactive: 92.5%.

In the case of `O=C(NNc1nc2cc3c(cc2s1)OCO3)c1cccc(F)c1`, the intracellular bacterial bioluminescence was inactive: 80.5%.

For `Cc1ccc2nc(NC(=O)CSc3c(C)cnc4c3c(=O)n(C)c(=O)n4C)sc2c1`, the intracellular bacterial bioluminescence is inactive: 91.8%.

As to `NC(=O)C1CCN(C2=NC(=O)/C(=C\c3ccc(Cl)cc3Cl)S2)CC1`, the intracellular bacterial bioluminescence is inactive: 87.2%.

On to `O=C1/C(=C\c2ccncc2)SC(=S)N1Nc1ccc([N+](=O)[O-])cc1[N+](=O)[O-]`, for which the intracellular bacterial bioluminescence is inactive: 122%.

`Cc1ccc(NS(=O)(=O)c2cc(-c3noc(C4CC4)n3)cs2)nc1`: the intracellular bacterial bioluminescence is inactive: 88.9%.

Regarding `O=C(O)c1ccccc1NC(=O)c1c2c(n3ccccc13)C(=O)c1ccccc1C2=O`, the intracellular bacterial bioluminescence is inactive: 98%.

For `COC(=O)c1sc(NC(=O)CSc2nnc3ccccn23)c(C(=O)OC)c1C`, the intracellular bacterial bioluminescence was inactive: 26.8%.

Turning to `CC(C)c1ccc2[nH]c3nc(SCC(=O)NCc4ccco4)nnc3c2c1`, the intracellular bacterial bioluminescence is inactive: 63.6%.

Take `CC(=O)c1ccc(NC(=O)CSc2nnnn2-c2cc(C)cc(C)c2)cc1`: the intracellular bacterial bioluminescence was inactive: 99.2%.

`CCOc1ccc(C(=O)Nc2ccc(-c3cn4ccc(C)nc4n3)cc2)cc1`: the intracellular bacterial bioluminescence is inactive: 86.3%.

On to `CNc1c2c3c(cccc3n(C)c1=O)C(=O)c1ccccc1-2`, for which the intracellular bacterial bioluminescence was inactive: 84.4%.

Consider `COCCNC(=O)COc1nc(C)nc2oc(C)c(C)c12`, for which the intracellular bacterial bioluminescence is inactive: 94.5%.

Take `COc1cccc(/C=C2\SC(=S)N(c3ccc(O)c(C(=O)O)c3)C2=O)c1OC`: the intracellular bacterial bioluminescence was inactive: 114%.

In the case of `c1ccc(OCCSc2nnc3sc4ccccc4n23)cc1`, the intracellular bacterial bioluminescence is inactive: 76.5%.

Turning to `O=C(Nc1nc2c(cc3c4c(cccc42)CC3)s1)c1ccc(N2C(=O)CCC2=O)cc1`, the intracellular bacterial bioluminescence was inactive: 112%.

Regarding `Cc1nc(N2CCC(C(=O)NC(C)C(=O)N3CCCCC3)CC2)c2c(C)c(C)oc2n1` (stereo not given), the intracellular bacterial bioluminescence was inactive: 65%.

On to `Cc1ccc(NC(=O)CS(=O)CC(=O)NC2CCc3ccccc32)cc1Cl` (stereo not given), for which the intracellular bacterial bioluminescence is inactive: 66.7%.

As for `Cc1cccc(NC(=O)c2cnc(N3CCCCC3)c3ccccc23)n1`, the intracellular bacterial bioluminescence is inactive: 81.8%.

In the case of `COc1cccc2c1OC(c1ccncc1)N1N=C(c3cc(C)ccc3O)CC21` (stereo not given), the intracellular bacterial bioluminescence is inactive: 91.2%.

Take `Cn1c(=O)c2c(nc(CN3CCN(c4ccccc4)CC3)n2CCN2CCOCC2)n(C)c1=O`: the intracellular bacterial bioluminescence was inactive: 121%.

As to `COc1ccccc1-c1ocnc1C(=O)N1CCN(c2ncccn2)CC1`, the intracellular bacterial bioluminescence is inactive: 98.5%.

Turning to `Cc1cc(C)cc(NC(=O)CSc2nccn(-c3ccc(C)c(Cl)c3)c2=O)c1`, the intracellular bacterial bioluminescence is inactive: 100%.

Turning to `Cc1nnc(SCC(=O)Nc2ccc(OC(F)F)cc2)n(N)c1=O`, the intracellular bacterial bioluminescence was inactive: 135%.

On to `O=C(CSc1nc2sc3c(c2c(=O)[nH]1)CCCC3)NNC(=O)c1ccco1`, for which the intracellular bacterial bioluminescence was inactive: 99.7%.

Consider `Cn1cnnc1SCc1cc(=O)c(OCC(=O)Nc2ccc(Cl)c(Cl)c2)co1`, for which the intracellular bacterial bioluminescence is inactive: 45.7%.

As for `CCOc1ccc(-c2c3c(nc4sc(C(=O)Nc5nccs5)c(N)c24)CCCC3)cc1`, the intracellular bacterial bioluminescence is inactive: 77.1%.

As to `O=C(CCCS(=O)(=O)c1ccccc1)Nc1nc2ccc(Br)cc2s1`, the intracellular bacterial bioluminescence was inactive: 104%.

Regarding `CCc1ccccc1NS(=O)(=O)c1c(C)sc(C)c1-c1cc(C(F)(F)F)on1`, the intracellular bacterial bioluminescence is inactive: 79.1%.

On to `COc1ccc(CCNC(=O)c2sc3nc4c(C)cccc4cc3c2N)cc1OC`, for which the intracellular bacterial bioluminescence is inactive: 68.8%.

As for `CCOC(=O)c1sc2nc3c(cc2c1N)C(=O)CCC3`, the intracellular bacterial bioluminescence is inactive: 110%.

For the compound `O=C(CC1Nc2cccc3cccc(c23)NC1=O)Nc1ccc([N+](=O)[O-])cc1` (stereo not given), the intracellular bacterial bioluminescence is inactive: 65.8%.

In the case of `COc1ccc(Nc2[nH]nnc2C(=O)Nc2ccc(C)c(Cl)c2)cc1Cl`, the intracellular bacterial bioluminescence is inactive: 87.4%.
